The values below come from paper PMC7229206, “Split Intein-Mediated Protein Ligation for detecting protein-protein interactions and their inhibition” (Nature Communications, 2020).

The chains behind the UniProt entries cited, without tags or fusion partners. Residues count along the entry.
UniProt P49821, residues 21-464: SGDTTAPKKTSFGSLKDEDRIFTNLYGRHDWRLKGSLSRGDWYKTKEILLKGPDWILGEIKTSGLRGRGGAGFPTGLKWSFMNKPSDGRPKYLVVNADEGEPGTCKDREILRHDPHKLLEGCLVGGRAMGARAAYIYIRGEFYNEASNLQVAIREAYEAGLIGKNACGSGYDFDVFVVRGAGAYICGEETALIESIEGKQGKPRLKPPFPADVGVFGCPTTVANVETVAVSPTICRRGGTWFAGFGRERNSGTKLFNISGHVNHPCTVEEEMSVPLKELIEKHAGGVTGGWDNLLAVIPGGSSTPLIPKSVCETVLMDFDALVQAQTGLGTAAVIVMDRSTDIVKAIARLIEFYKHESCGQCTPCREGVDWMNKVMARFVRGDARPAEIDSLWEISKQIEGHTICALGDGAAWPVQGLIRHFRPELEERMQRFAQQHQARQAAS
UniProt P28482: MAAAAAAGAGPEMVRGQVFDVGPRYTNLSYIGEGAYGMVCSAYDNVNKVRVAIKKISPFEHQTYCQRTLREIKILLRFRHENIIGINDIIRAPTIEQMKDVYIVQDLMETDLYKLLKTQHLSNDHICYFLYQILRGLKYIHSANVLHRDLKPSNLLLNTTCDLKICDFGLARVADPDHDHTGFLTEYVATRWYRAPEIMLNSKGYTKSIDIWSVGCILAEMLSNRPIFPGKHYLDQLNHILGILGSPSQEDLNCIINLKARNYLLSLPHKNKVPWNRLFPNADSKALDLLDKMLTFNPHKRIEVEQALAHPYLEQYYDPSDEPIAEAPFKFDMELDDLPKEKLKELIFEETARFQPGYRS
UniProt Q3ZCQ8, residues 45-353: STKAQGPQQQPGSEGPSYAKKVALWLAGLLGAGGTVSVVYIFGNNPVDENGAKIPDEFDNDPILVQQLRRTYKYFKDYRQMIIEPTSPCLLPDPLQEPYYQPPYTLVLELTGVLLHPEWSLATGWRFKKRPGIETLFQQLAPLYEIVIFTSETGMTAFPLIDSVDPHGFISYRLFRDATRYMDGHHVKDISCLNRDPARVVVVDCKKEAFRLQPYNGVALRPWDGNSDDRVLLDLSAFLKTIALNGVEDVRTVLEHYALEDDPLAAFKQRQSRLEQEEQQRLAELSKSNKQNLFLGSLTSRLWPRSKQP
UniProt P31040, residues 43-664: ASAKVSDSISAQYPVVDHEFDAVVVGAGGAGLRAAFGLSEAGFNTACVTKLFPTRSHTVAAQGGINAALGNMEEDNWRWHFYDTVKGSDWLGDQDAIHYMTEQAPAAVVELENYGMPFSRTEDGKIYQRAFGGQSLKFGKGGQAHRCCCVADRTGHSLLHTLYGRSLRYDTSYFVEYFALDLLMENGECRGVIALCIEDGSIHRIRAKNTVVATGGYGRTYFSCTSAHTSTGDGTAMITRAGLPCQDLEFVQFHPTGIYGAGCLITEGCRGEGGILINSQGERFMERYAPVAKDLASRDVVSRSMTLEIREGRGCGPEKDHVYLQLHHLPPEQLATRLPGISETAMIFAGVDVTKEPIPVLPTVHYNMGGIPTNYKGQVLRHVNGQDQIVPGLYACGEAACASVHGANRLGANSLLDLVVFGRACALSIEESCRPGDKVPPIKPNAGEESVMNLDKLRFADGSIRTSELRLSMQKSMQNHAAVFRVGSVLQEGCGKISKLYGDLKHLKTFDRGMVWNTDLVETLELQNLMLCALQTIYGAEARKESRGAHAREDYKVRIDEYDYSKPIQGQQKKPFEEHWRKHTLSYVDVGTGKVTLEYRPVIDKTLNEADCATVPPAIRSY
UniProt P56181, residues 35-108: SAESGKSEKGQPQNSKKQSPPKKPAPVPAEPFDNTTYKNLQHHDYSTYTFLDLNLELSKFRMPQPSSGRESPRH

No constants are given. Whether binding was seen depends on the method and setting. Binding seen in cells or lysates may run through a third protein. Some binding calls cover weakened binding; strength is not graded here.

The target in one assay is NDUFV1 (bait, IN format) (UniProt P49821). Nature of the assay: split reporter; SIMPL with ELISA read-out: HEK 293 cells in 96- or 384-well plates, lysed in TNE buffer; spliced product captured on α-FLAG and detected with HRP-conjugated α-HA; signal normalised to bait expression; rapamycin doses for 30 min for FRB/FKBP1A; venetoclax or osimertinib given with tetracycline 6 h before assay for BAX/BCL2 and BAX/BCL2L1. For orientation: In an ELISA, binding on a coated surface is turned into a signal by an enzyme label.

In the next assay the target is IN-fused MAPK1 (ERK2) (UniProt P28482). The assay is described as follows: split reporter; SIMPL of MAPK1 and ELK1 in cells stimulated with tetradecanoylphorbol acetate (TPA); read-out not told in the text (Supplementary Fig. 4d).
The target of the next assay is T1, ETFA (bait, IN format) (UniProt P13804).
T1 sequence: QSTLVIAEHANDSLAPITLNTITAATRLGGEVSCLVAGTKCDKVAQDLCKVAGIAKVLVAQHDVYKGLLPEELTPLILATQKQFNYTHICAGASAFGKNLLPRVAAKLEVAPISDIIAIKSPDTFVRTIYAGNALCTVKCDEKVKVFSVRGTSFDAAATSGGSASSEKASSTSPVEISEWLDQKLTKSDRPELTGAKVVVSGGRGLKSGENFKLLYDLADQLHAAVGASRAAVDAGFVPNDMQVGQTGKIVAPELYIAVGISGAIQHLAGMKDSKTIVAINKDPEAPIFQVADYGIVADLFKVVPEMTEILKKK
The assay is described as follows: split reporter; SIMPL with ELISA read-out: HEK 293 cells in 96- or 384-well plates, lysed in TNE buffer; spliced product captured on α-FLAG and detected with HRP-conjugated α-HA; signal normalised to bait expression; rapamycin doses for 30 min for FRB/FKBP1A; venetoclax or osimertinib given with tetracycline 6 h before assay for BAX/BCL2 and BAX/BCL2L1.

Assay [1] addresses T2, PDHA1 (bait, IN format) (UniProt P08559).
T2 sequence: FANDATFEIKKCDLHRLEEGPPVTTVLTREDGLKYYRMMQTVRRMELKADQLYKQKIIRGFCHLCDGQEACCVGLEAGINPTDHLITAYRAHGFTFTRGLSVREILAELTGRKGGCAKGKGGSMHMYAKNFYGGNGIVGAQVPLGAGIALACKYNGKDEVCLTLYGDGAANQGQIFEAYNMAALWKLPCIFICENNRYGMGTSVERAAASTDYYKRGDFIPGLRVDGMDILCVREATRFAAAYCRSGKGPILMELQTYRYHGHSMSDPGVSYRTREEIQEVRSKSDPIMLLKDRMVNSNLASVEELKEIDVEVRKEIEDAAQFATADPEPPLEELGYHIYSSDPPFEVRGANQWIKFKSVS
Described as above.

Assay [2] has as its target T2, PDHA1 (bait, IN format). The assay is described as follows: condition: only PDHA1 and PDHB separately expressed in different cells and the two cell lysates mixed; split reporter; control of SIMPL ELISA: bait and prey expressed in separate cells, the two cell lysates mixed and assayed by ELISA.
The next assay deals with TIMM50 (bait, IN format) (UniProt Q3ZCQ8). Nature of the assay: split reporter; SIMPL with ELISA read-out: HEK 293 cells in 96- or 384-well plates, lysed in TNE buffer; spliced product captured on α-FLAG and detected with HRP-conjugated α-HA; signal normalised to bait expression; rapamycin doses for 30 min for FRB/FKBP1A; venetoclax or osimertinib given with tetracycline 6 h before assay for BAX/BCL2 and BAX/BCL2L1.

The next assay has as its target SDHA (bait, IN format) (UniProt P31040). Described as above.

Consider “NDUFV3 (prey, IC or CIC format) (from UniProt P56181 35-108)”, for which, in the assay with NDUFV1 (bait, IN format), the binding result is listed as “binds”.

B1: ELK1 (SIMPL prey) (protein, UniProt P19419 1-428)
chain: MDPSVTLWQFLLQLLREQGNGHIISWTSRDGGEFKLVDAEEVARLWGLRKNKTNMNYDKLSRALRYYYDKNIIRKVSGQKFVYKFVSYPEVAGCSTEDCPPQPEVSVTSTMPNVAPAAIHAAPGDTVSGKPGTPKGAGMAGPGGLARSSRNEYMRSGLYSTFTIQSLQPQPPPHPRPAVVLPSAAPAGAAAPPSGSRSTSPSPLEACLEAEEAGLPLQVILTPPEAPNLKSEELNVEPGLGRALPPEVKVEGPKEELEVAGERGFVPETTKAEPEVPPQEGVPARLPAVVMDTAGQAGGHAASSPEISQPQKGRKPRDLELPLSPSLLGGPGPERTPGSGSGSGLQAPGPALTPSLLPTHTLTPVLLTPSSLPPSIHFWSTLSPIAPRSPAKLSFQFPSSGSAQVHIPSISVDGLSTPVVLSPGPQKP
For the molecule B1, the binding entry with IN-fused MAPK1 (ERK2) was “binds”.

B2: ETFB (prey, IC or CIC format) (protein, UniProt P38117 1-255)
chain: MAELRVLVAVKRVIDYAVKIRVKPDRTGVVTDGVKHSMNPFCEIAVEEAVRLKEKKLVKEVIAVSCGPAQCQETIRTALAMGADRGIHVEVPPAEAERLGPLQVARVLAKLAEKEKVDLVLLGKQAIDDDCNQTGQMTAGFLDWPQGTFASQVTLEGDKLKVEREIDGGLETLRLKLPAVVTADLRLNEPRYATLPNIMKAKKKKIEVIKPGDLGVDLTSKLSVISVEDPPQRTAGVKVETTEDLVAKLKEIGRI
Regarding B2, in the assay with ETFA (bait, IN format), the binding result is “binds”.

B3: PDHB (prey, IC or CIC format) (protein, UniProt P11177 31-359)
chain: LQVTVRDAINQGMDEELERDEKVFLLGEEVAQYDGAYKVSRGLWKKYGDKRIIDTPISEMGFAGIAVGAAMAGLRPICEFMTFNFSMQAIDQVINSAAKTYYMSGGLQPVPIVFRGPNGASAGVAAQHSQCFAAWYGHCPGLKVVSPWNSEDAKGLIKSAIRDNNPVVVLENELMYGVPFEFPPEAQSKDFLIPIGKAKIERQGTHITVVSHSRPVGHCLEAAAVLSKEGVECEVINMRTIRPMDMETIEASVMKTNHLVTVEGGWPQFGVGAEICARIMEGPAFNFLDAPAVRVTGADVPMPYAKILEDNSIPQVKDIIFAIKKTLNI
With B3, the binding result is “binds” in the assay with PDHA1 (bait, IN format) [1] and “no binding” in the assay with PDHA1 (bait, IN format) [2].

B4: TIMM23 (prey, IC or CIC format) (protein, UniProt O14925 1-209)
chain: MEGGGGSGNKTTGGLAGFFGAGGAGYSHADLAGVPLTGMNPLSPYLNVDPRYLVQDTDEFILPTGANKTRGRFELAFFTIGGCCMTGAAFGAMNGLRLGLKETQNMAWSKPRNVQILNMVTRQGALWANTLGSLALLYSAFGVIIEKTRGAEDDLNTVAAGTMTGMLYKCTGGLRGIARGGLTGLTLTSLYALYNNWEHMKGSLLQQSL
Regarding B4, the binding result in the assay with TIMM50 (bait, IN format) was “binds”.

B5: SDHB (prey, IC or CIC format) (protein, UniProt P21912 29-280)
chain: AQTAAATAPRIKKFAIYRWDPDKAGDKPHMQTYEVDLNKCGPMVLDALIKIKNEVDSTLTFRRSCREGICGSCAMNINGGNTLACTRRIDTNLNKVSKIYPLPHMYVIKDLVPDLSNFYAQYKSIEPYLKKKDESQEGKQQYLQSIEEREKLDGLYECILCACCSTSCPSYWWNGDKYLGPAVLMQAYRWMIDSRDDFTEERLAKLQDPFSLYRCHTIMNCTRTCPKGLNPGKAIAEIKKMMATYKEKKASV
B5: in the assay with SDHA (bait, IN format), the binding entry is “binds”.
